The target of this assay is BCMA antigen (ELISA of Example 9) (UniProt Q02223). In words: ELISA, purified scFv.

Chains of the proteins cited; added tags and fusions are not shown. Residues count along the entry.
UniProt Q02223, residues 1-54: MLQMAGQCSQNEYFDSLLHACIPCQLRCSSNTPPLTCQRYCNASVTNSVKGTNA

These are yes or no findings as the source states them, for the method shown. Some binding calls cover weakened binding; strength is not graded here.

B1: BY-02G scFv (humanized, purified) (scFv)
scFv: EIVMTQSPSTLSASVGDRVIINCQSSPSVYNNYLSWYQQKPGKAPKLLIYETSTLASGVPSRFSGSGSGAEFTLTISSLQPDDFATYYCAGTYVSGDRRAFGQGTKLTVLGGGGSGGGGSGGGGSEVQLVESGGGLVQPGGSLRLSCTASGFSLSTYHMTWVRQAPGKGLEWIGVISSSGSTYYASWAKGRFTISRDNSKNTVYLQMNSLRAEDTAVYFCARDLDYVIDLWGPGTLVTVSS
As for B1, the binding entry was “binds”.

(Values after patent EP4435012A1 (Juventus Cell Therapy Ltd., dated 2024).)
